Laboratory results published in paper PMC7284918, “In-Depth Characterization of EpiIntestinal Microtissue as a Model for Intestinal Drug Absorption and Metabolism in Human” (Pharmaceutics, 2020).

Legend:
[1] = Intestinal first-pass availability in EpiIntestinal microtissues; type: in vitro ADME; settings: human, 10 µM apical, GI firstpass availability, read-out: Recovery in Basal Comp. @ 24h (%)
Description: Compounds were diluted in culture media to a final concentration of 10 µM and added to the apical (donor) compartment (total volume: 100 µL for EpiIntestinal and 200 µL for Caco-2). After the incubation at 37 °C for 2, 4, 6, and 24 h, samples (50 µL) were taken from the basal (receiver) compartment (total volume: 5000 µL for EpiIntestinal and 800 µL for Caco-2). After the last timepoint, samples from the donor compartments and the cell lysates were also collected. Compound concentrations in the samples were determined by HPLC-MS/MS (Section 2.3).
GI first-pass availability of the tested compounds was expressed as fraction (%) of the total amount of a compound added to the donor compartment recovered in the receiver compartment.

[2] = Clinical pharmacokinetic data and calculated Fa × Fg in human; type: in vivo; settings: calculated from clinical pharmacokinetic data (Section 2.8, Table 2)
From the text: A set of 12 marketed drugs are selected for the evaluation of EpiIntestinal microtissues.

[3] = human, clinical; cited from earlier work

## COC(=O)C1=C(C)NC(C)=C(C(=O)OC)C1c1ccccc1[N+](=O)[O-] [Nifedipine]
[1]
  recovery at 24 h, 10 µM: 110%
[2]
  Fa × Fg in Human (%): 100%
[3]
  F (total oral availability): 0.9 [8]
